{"source": "paper PMC12510877", "key": {"[1]": {"target": "T1, bovine PDE6 beta subunit (bovine (endogenous in rod outer segment membranes)) (UniProt P23439)", "T1 sequence (chain, C-terminal geranylgeranylation (complete))": "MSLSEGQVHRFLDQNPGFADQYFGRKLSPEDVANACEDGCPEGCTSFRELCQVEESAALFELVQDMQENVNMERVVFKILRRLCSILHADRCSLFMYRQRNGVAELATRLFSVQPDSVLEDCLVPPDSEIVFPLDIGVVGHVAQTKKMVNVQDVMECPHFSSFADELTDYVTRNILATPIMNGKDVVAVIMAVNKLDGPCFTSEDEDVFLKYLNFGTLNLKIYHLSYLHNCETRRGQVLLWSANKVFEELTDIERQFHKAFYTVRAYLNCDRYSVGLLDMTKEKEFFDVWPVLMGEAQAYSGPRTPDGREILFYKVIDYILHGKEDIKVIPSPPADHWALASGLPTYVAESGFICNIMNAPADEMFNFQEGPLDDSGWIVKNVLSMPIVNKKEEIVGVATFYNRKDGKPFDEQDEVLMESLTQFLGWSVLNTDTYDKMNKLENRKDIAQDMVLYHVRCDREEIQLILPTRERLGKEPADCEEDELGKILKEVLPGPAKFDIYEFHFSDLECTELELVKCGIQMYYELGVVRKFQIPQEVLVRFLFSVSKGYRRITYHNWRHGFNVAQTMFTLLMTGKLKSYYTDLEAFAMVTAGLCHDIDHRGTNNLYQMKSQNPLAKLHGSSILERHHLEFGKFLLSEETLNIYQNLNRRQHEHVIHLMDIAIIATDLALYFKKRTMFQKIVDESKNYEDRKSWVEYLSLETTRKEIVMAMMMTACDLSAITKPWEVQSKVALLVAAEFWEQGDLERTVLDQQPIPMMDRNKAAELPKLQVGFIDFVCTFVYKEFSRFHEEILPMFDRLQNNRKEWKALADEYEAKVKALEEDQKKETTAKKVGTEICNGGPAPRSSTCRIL", "test": "native MS; endogenous PDE6 complex isolated as a whole from rod outer segment disc membranes; 200 mM ammonium acetate, pH 7.0; the heterotetramer (30+; m/z 7250 ± 5) selected with the quadrupole and fragmented by IRMPD (8.4 W, 5 ms); subunits identified from the fragments; both purified"}, "[2]": {"target": "T2, bovine PDE6 alpha subunit (bovine (endogenous in rod outer segment membranes)) (UniProt P11541)", "T2 sequence": "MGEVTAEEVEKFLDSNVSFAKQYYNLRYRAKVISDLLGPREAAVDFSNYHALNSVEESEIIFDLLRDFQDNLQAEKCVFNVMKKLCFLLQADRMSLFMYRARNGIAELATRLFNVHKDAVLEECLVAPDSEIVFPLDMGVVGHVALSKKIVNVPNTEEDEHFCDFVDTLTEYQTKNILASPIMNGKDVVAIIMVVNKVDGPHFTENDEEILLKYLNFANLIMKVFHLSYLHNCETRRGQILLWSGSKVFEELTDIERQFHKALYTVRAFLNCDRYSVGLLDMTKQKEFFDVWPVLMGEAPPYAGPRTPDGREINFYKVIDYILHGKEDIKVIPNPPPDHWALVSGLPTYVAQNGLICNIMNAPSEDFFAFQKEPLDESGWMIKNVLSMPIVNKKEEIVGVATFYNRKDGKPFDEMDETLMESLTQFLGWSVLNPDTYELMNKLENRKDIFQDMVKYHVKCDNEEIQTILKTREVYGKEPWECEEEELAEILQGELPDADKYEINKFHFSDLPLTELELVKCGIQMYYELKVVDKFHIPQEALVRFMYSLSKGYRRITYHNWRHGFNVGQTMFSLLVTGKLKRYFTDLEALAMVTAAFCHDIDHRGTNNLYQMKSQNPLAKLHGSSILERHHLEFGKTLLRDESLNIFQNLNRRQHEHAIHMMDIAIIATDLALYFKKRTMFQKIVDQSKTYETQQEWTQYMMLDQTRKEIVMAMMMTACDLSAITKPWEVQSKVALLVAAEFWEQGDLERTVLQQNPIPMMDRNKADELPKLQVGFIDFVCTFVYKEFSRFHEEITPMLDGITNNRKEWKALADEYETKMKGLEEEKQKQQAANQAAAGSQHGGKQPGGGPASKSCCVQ", "test": "native MS; endogenous PDE6 complex isolated as a whole from rod outer segment disc membranes; 200 mM ammonium acetate, pH 7.0; the heterotetramer (30+; m/z 7250 ± 5) selected with the quadrupole and fragmented by IRMPD (8.4 W, 5 ms); subunits identified from the fragments; both purified"}}, "note": "No constants are given. Whether binding was seen depends on the method and setting. Some entries that bind do so weakly or less than the wild type."}
{"binder": "bovine PDE6 gamma subunit (protein, UniProt P04972 1-87) MNLEPPKAEIRSATRVMGGPVTPRKGPPKFKQRQTRQFKSKPPKKGVQGFGDDIPGMEGLGTDITVICPWEAFNHLELHELAQYGII", "values": [{"measurement": "binding", "setting": "[1]", "result": "binds"}, {"measurement": "binding", "setting": "[2]", "result": "binds"}]}
